The list shows a part of the results.

The chains behind the UniProt entries cited, without tags or fusion partners.
UniProt Q0JBA9, entry or part of it: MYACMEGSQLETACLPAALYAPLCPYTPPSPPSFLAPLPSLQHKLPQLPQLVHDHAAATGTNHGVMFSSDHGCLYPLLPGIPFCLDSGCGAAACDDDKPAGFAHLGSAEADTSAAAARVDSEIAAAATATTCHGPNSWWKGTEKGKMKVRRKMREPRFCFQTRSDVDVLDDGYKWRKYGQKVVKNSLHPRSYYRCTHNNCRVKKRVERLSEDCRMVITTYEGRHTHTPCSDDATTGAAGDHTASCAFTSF

This assay deals with OsWRKY34 (Oryza sativa, UniProt Q0JBA9 1-250). Briefly: protein-binding microarray (RPBM); PBS, 2% BSA, 51.3 ng/ul salmon testes DNA, 50 uM zinc acetate, 200 nM TF, 25 C, 1 h; high values mean tight binding. The conditions noted are these: protein: recombinant; tags: N-terminal polyhistidine and DsRed monomer fusion (pET32a); label: CyDye5-dUTP incorporated in the synthesized complementary strand; 3' TTTTT single-stranded linker to array surface; dsDNA, one strand shown. In short, it runs like this:
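Transcription factors were each fused at the N-terminus to a polyhistidine tag plus DsRed and expressed in E. coli BL21-CodonPlus before Ni–NTA purification. Binding to a double-stranded custom Agilent array was carried out with 200 nM protein at 25 °C for 1 h in PBS, 2% BSA, salmon testes DNA and 50 µM zinc acetate. The binding signal is per-feature fluorescence intensity, in arbitrary units, on an Axon 4000B scanner.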
“GTTTTTCATATTTGACGATCAAACGGTGGTTTTAAAACTTCGGAGTCACCTAGTGCAG”: the binding signal is 8140 fluorescence intensity (a.u.).
The value for “GCCAATCTACTATACATGTTAGGTTTAACATTGACTAACACGGAGTCACCTAGTGCAG” was 8810 fluorescence intensity (a.u.); that for “TCTGCCCGTCTGACTCTTGACTAGAGTATTTTACATCAATCGGAGTCACCTAGTGCAG” was 8820 fluorescence intensity (a.u.); that for “TTCCAGTCATTTGCCCCTTTGACCTTGGTAGCTGTAACGCCGGAGTCACCTAGTGCAG” was 10800 fluorescence intensity (a.u.).
In the case of “CATATGCTTCACTTACCTCTACCAGCTGCTACTGCTTCTACGGAGTCACCTAGTGCAG”, the binding signal was 12100 fluorescence intensity (a.u.).
Regarding “ATCCTGTTTGATATCAGCTCGCCCTCGCTGGGCGTGTCGACGGAGTCACCTAGTGCAG”, the binding signal is 9310 fluorescence intensity (a.u.).
In the case of “TGTTCACACGTATTCCTTGCCCATGTCACCAAAATCTCAACGGAGTCACCTAGTGCAG”, the binding signal is 10200 fluorescence intensity (a.u.).
For “TACTTACCGATTTCATCAGCATTCTTGTTTCAGAGTAAGACGGAGTCACCTAGTGCAG”, the binding signal is 8510 fluorescence intensity (a.u.).
The value for “TCTCGGGATCATCAGTTCACTATTGTAATATGTGGTATTTCGGAGTCACCTAGTGCAG” was 8110 fluorescence intensity (a.u.); that for “GTCAATTCTCAATCGTTTTCCGTCCGCCTTGATCGCTATTCGGAGTCACCTAGTGCAG” was 11800 fluorescence intensity (a.u.); that for “TCTACTCCAGCATTGCTGCTGCGCGACTCGCCGTCCTCCACGGAGTCACCTAGTGCAG” was 8340 fluorescence intensity (a.u.).
The figure for “GCTGCCGATTGATGATTCCCTGCCGCCCGCGCCACAAAAACGGAGTCACCTAGTGCAG” is 8680 fluorescence intensity (a.u.).
The value for “AGATTTTCGCTTGTTTCATCCAACCCCTGTACCGTGCGCACGGAGTCACCTAGTGCAG” was 10400 fluorescence intensity (a.u.); that for “TGATGTCTTATCTCGGGTCTCATCTTTTCGCTTATGCTTACGGAGTCACCTAGTGCAG” was 8990 fluorescence intensity (a.u.).
Take “CAGTCCCAGTGCACCAGCCAGTCATCACCAACCACCATCCCGGAGTCACCTAGTGCAG”: the binding signal was 8490 fluorescence intensity (a.u.).
The figure for “ACCTCCTCCGGAGCTTCGCCCCTAGCCTCAGCCGCGCCCTCGGAGTCACCTAGTGCAG” is 11100 fluorescence intensity (a.u.); for “CCATCGTCTACCTGTACGTACGTATATACCAAGCTAGTTACGGAGTCACCTAGTGCAG” it is 8790 fluorescence intensity (a.u.).
Take “CGTCGATCTCTATCTCTCTCTCTCGCTTGTTCTTCTTCACCGGAGTCACCTAGTGCAG”: the binding signal is 15200 fluorescence intensity (a.u.).
For “TTCCTTATCTGTCTATCACACACCACCTGAGTCACTGACACGGAGTCACCTAGTGCAG”, the binding signal is 9420 fluorescence intensity (a.u.).
The value for “ATATACTACTAGCTCATCATATTGTTTACTACTATATAAACGGAGTCACCTAGTGCAG” was 9770 fluorescence intensity (a.u.); that for “AATCACAACTCTTCACCATTCACTTTTACCTGTTTTTGTTCGGAGTCACCTAGTGCAG” was 9390 fluorescence intensity (a.u.); that for “CCATCGAAAAAAGACCCTTTTTTCACCCAAGCTTTCTTGCCGGAGTCACCTAGTGCAG” was 8480 fluorescence intensity (a.u.).
The value for “TTCCACACCAACCTATTCATGTTCCTGGTCGTCAACCTCGCGGAGTCACCTAGTGCAG” was 10000 fluorescence intensity (a.u.).

For the origin of these results see PMC7819943, “Rice protein-binding microarrays: a tool to detect cis-acting elements near promoter regions in rice”.
